According to PubChem BioAssay AID624291 (National Center for Advancing Translational Sciences (NCATS), 2012):
Screen size: about 350,000 compounds; about 220 (0.063%) were called active. This list was built around the results that the source calls inconclusive (neither active nor inactive); the mix of calls is not that of the screen. Calls come from the whole dose curve; as a rule, active = well fitted activation curve with a large enough effect; inconclusive = small, poorly fitted or top-dose-only effect; inactive = no such curve, though single readings can be large or run the other way. A potency beside an inconclusive call is a rough fit, not a confirmed value.

Test: qHTS for Activators of Integrin-Mediated Alleviation for Muscular Dystrophy; note: nearly all actives have a fitted effect of over 60% in size;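 for activation: 100% = response of the positive control SU9516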
Settings: alpha7betagal myoblasts, beta-gal FDG fluorescence, 48 h; activation: at 38.3 µM (top of the series)
How it was run: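 Alpha7betagal+/- myoblasts (passage 13) were plated 16-24 hr, then exposed to compounds (1:260 dilution of DMSO stock) for 48 hours at 37C. After MPER lysis, β-galactosidase reporter activity was read as FDG fluorescence (ex 480/em 540) after 30 minutes.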
Potency is the fitted concentration of half-maximal effect.

Row | SMILES | Potency | activation
1 | Cc1cc(N(CN2CCCC2=O)C(=O)c2ccc(OC(C)C)cc2)no1 | inconclusive: 28.2 µM [activator, single point] | 
2 | Cc1cccc(NC(=O)NCCN2CCCCC2)c1 | inconclusive: 4.47 µM [activator, single point] | 
3 | COc1ccc(/C=C2\SC(=S)N(CC(=O)OCC(=O)Nc3ccc(C)cc3Cl)C2=O)cc1 | inconclusive: 14.1 µM [activator, single point] | 
4 | COc1cc(OC)c(C(=O)OCCCOC(=O)c2cc(OC)c(OC)cc2OC)cc1OC |  | inactive: 4.15%
5 | O=C(CSc1ccccn1)Nc1nonc1[N+](=O)[O-] |  | inactive: -84.6%
6 | CC(C)OC(=O)NC(c1ccccc1)C(Cl)(Cl)Cl (stereo not given) | inconclusive: 2.51 µM [activator, partial curve, poor fit] | 
7 | Cn1ccnc1C(=O)c1ccccc1Cl | inconclusive: 2.24 µM [activator, single point] | 
8 | CCCCNC(=O)OCC(CC)NC(=O)OCC(C)C (stereo not given) | inconclusive: 3.16 µM [activator, full curve, poor fit] | 
9 | CCN(CC)S(=O)(=O)c1ccc(C(=O)Nc2nnc(COC)o2)cc1 | inconclusive: 3.16 µM [activator, single point] | 
10 | O=C(NNC(=O)c1ccc(S(=O)(=O)N2CCCCC2)cc1)c1ccccc1 | inconclusive: 5.01 µM [activator, partial curve, poor fit] | 
11 | O=C(c1ccccc1)N1CCN(c2nc3ccc([N+](=O)[O-])cc3s2)CC1 |  | inactive: -5.2%
12 | COc1ccc(C(=O)N/N=C\C(C)=C\c2ccccc2)cc1OC | inconclusive: 11.2 µM [activator, partial curve, poor fit] | 
13 | Cc1cc(S(=O)(=O)N2CCCC2)ccc1OCC(=O)NCc1ccco1 |  | inconclusive: -7.11% [activator]
14 | COc1ccc(C(=O)CSC2=NS(=O)(=O)c3cc(Cl)ccc3N2)cc1 |  | inactive: 0.264%
15 | Cn1/c(=N/N=C/c2ccc(N3CCOCC3)cc2)sc2ccccc21 | inconclusive: 3.16 µM [activator, single point] | 
16 | c1ccc(-c2c(-c3ccccc3)n(Cc3ccco3)c3ncnc(NCCCn4ccnc4)c23)cc1 |  | inactive: -51.1%
17 | COC(=O)C1=C(C)OC(N)=C(C#N)C1c1ccccc1 (stereo not given) |  | inactive: 0.984%
18 | COc1ccc(N2CCN(C(=O)CCc3ccccc3)CC2)cc1 | inconclusive: 2.82 µM [activator, partial curve, poor fit] | 
19 | CCOC(=O)CSc1nc(C)cc(C)n1 | inconclusive: 3.16 µM [activator, single point] | 
20 | CCC(=O)N1c2ccccc2C(N(C(C)=O)c2ccccc2)CC1C (stereo not given) | inconclusive: 12.6 µM [activator, single point] | 

A second format for part of the listing above.

| Row | SMILES | Potency | activation |
| --- | --- | --- | --- |
| 5 | O=C(CSc1ccccn1)Nc1nonc1[N+](=O)[O-] |  | inactive: -84.6% |
| 6 | CC(C)OC(=O)NC(c1ccccc1)C(Cl)(Cl)Cl (stereo not given) | inconclusive: 2.51 µM [activator, partial curve, poor fit] |  |
| 7 | Cn1ccnc1C(=O)c1ccccc1Cl | inconclusive: 2.24 µM [activator, single point] |  |
| 8 | CCCCNC(=O)OCC(CC)NC(=O)OCC(C)C (stereo not given) | inconclusive: 3.16 µM [activator, full curve, poor fit] |  |
| 9 | CCN(CC)S(=O)(=O)c1ccc(C(=O)Nc2nnc(COC)o2)cc1 | inconclusive: 3.16 µM [activator, single point] |  |
| 10 | O=C(NNC(=O)c1ccc(S(=O)(=O)N2CCCCC2)cc1)c1ccccc1 | inconclusive: 5.01 µM [activator, partial curve, poor fit] |  |
